Library screening results

By UniProt entry, the sequences of proteins in these tests, tags left out.
UniProt E9BF75, entry or part of it: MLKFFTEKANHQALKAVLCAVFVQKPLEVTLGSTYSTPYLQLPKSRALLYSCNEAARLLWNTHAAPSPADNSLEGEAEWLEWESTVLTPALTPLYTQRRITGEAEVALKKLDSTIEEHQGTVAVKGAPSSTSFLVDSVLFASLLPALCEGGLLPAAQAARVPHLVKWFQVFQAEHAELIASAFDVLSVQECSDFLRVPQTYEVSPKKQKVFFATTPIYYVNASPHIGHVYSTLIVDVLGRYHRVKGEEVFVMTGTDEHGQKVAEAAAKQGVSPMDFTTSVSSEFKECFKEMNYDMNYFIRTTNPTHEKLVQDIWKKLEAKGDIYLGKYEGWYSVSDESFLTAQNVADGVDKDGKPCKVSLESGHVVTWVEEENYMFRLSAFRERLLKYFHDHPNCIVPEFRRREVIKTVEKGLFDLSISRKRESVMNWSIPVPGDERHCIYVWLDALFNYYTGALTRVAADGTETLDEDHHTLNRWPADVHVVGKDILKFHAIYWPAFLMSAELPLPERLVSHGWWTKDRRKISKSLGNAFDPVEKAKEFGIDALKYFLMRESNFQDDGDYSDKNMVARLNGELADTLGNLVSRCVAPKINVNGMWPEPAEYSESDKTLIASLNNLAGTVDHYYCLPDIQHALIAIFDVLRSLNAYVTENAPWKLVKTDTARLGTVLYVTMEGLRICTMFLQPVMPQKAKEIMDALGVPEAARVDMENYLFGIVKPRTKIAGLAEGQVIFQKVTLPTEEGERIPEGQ

Mtb heat-shock: 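Assay on Mycobacterium tuberculosis, filed only as a heat shock assay from Cornell; the read-out is not stated. The concentration is filed as 10 mM, unlikely as a test dose, so the dose is not known. The record gives no direction; compounds that gave an IC50 in retests scored well above the rest, so higher reads as stronger inhibition. Of about 69,000 compounds tested this way, about 930 (1.4%) reached 50% or more in at least one test.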
Mtb growth Cornell: 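Whole-cell assay for inhibitors of Mycobacterium tuberculosis growth, labelled Cornell in the record; the read-out is not stated. The concentration is filed as 10 mM, unlikely as a test dose, so the dose is not known. The record gives no direction; compounds strong in two other growth screens of this library score well above the rest, so higher reads as stronger inhibition. Of about 53,000 compounds tested this way, about 900 (1.7%) reached 50% or more in at least one test.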
LdMetRS: 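Primary screen of methionyl-tRNA synthetase; the read-out is not stated. Target: Methionyl-tRNA synthetase (putative), Leishmania donovani (UniProt E9BF75). The test concentration is not given. The values are filed as inhibition. Size under these conditions: about 68,000 compounds, about 24 of them at 50% or above in at least one test.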

Results are percentages, as filed. The controls that fix the scale are not given in the record; negative values are as filed. The compounds are a random part of those screened. A dash means the value is not listed here; it may have been measured.

structure,Mtb heat-shock,Mtb growth Cornell,LdMetRS
Cc1nc(CNC(=O)NCC(O)c2ccc(F)c(F)c2)cs1 (stereo not given),10.02%,15.96%,9.206%
Cc1noc(CS(=O)(=O)c2cc(F)ccc2F)n1,16.45%,4.856%,12.46%
Cc1c(C2CCCN(C(=O)C3CC3)C2)n2c(nc1=O)CCC2 (stereo not given),-,-,14.04%
CNC(=O)CN1C(=O)CN(C(=O)COC)CCC(OC)c2ccccc21 (stereo not given),-13.67%,-10.69%,4.658%
[H][C@@]12CN(Cc3cccc(C)n3)C[C@]1([H])OCCN2S(=O)(=O)N(C)C,-1.375%,21.88%,-
CCc1ccc(S(=O)(=O)Nc2cc(C(=O)O)ccc2F)s1,-12.1%,-,14.92%
CC(C)CC(=O)N1CC[C@@H]2[C@H](CC1)N(Cc1cccnc1)CCS2(=O)=O,-,-,15.23%
CN(C)CCN1CCOCC2(C1)CN(Cc1nccs1)CCO2.O=C(O)C(F)(F)F.O=C(O)C(F)(F)F.O=C(O)C(F)(F)F (stereo not given),-26.54%,11.95%,-
CC(C)C(=O)NCc1ccnc(Oc2ccc(F)cc2)c1,-22.07%,-0.2234%,12.5%
CCCc1nc(C(=O)N[C@H]2COC[C@@H]2N2CCN(C)CC2)cs1,19.84%,17.05%,17.14%
Cc1nc(CC(=O)NCc2csc(N3CCCC3)n2)cs1,-10.31%,-,21.25%
CSc1ccc(C(=O)N2CCOCC2c2c(C)n[nH]c2C)o1 (stereo not given),-10.76%,-,10.72%
Cc1ccc(CNC(c2ccccc2)c2nccn2C)cc1 (stereo not given),-,-,6.667%
Cc1nn(C)c2c(=O)n(CC(=O)NCC3CCCO3)ccc12 (stereo not given),14.13%,11.04%,12.66%
Cc1ccnc(NCCNC(=O)Cc2c(C)[nH]c3c(C)ccc(C)c23)c1,-22.68%,-22.62%,14.44%
Cc1cc(F)ccc1OC1(C(=O)O)CCN(Cc2nccn2C)CC1,7.589%,2.168%,8.904%
CCc1cnccc1C(=O)Nc1ccc(C(N)=O)nc1,-25.64%,-41.47%,12.14%
CC1CCN(S(=O)(=O)NC(C)Cc2ccco2)CC1 (stereo not given),10.73%,45%,3.621%
COc1ccc(Cl)cc1-c1nc(N)nc(N)n1,-4.655%,-5.371%,7.895%
O=C(Cc1ccccc1)NCCNC(=O)c1scnc1Cl,-18.3%,-13.14%,21.1%
Cl.NCC1CCCCN1C(=O)Cc1cccc(Br)c1 (stereo not given),-23.87%,8.762%,-
O=C(NC1CC1)C1CCc2nnc(-c3cccnc3)n21 (stereo not given),-23.25%,-,5.143%
CC1(C(N)=O)CCCN(c2cnccn2)C1 (stereo not given),-22.67%,-15.87%,3.226%
COCC(C)NC(=O)N1CCN(S(C)(=O)=O)CC1 (stereo not given),-7.176%,-31.08%,17.89%
O=C(c1ccoc1)N(Cc1cccnc1)C1CC1,-12.22%,-6.407%,3.359%
CC(C)C(=O)N1CC[C@H]2N(C)CC[C@@]2(C(=O)N2CCOCC2)CC1,-,-,6.162%
CC(C)(C)NC(=O)CNc1ccc(C#N)c(C(F)(F)F)c1,17.52%,-,13.09%
N#Cc1ccc(CN2C(=O)c3ccccc3CS2(=O)=O)c(F)c1,-25.66%,-,16.57%
Cc1cnn(CC2CCCN2CC(=O)Nc2nccs2)c1 (stereo not given),102.3%,-,13.11%
O=c1[nH]ncc(NCCOc2ccc3c(c2)CCC3)c1Cl,22.69%,38.32%,13.7%
[H][C@@]12CN(C(=O)c3cnccn3)C[C@]1([H])C(=O)N(Cc1cccc(C)c1)C2,-22.83%,15.85%,-
Cc1ncc(CNCC2CCC(C(N)=O)CC2)n1-c1ccccc1 (stereo not given),-6.959%,-23.35%,2.211%
CC(C)(C)CC(=O)NCCn1nc(C2CCNC2)c2cccnc21 (stereo not given),-,-,14.69%
COC(CNC(=O)N1CCC(n2cncn2)CC1)c1ccccc1 (stereo not given),0.006543%,-,15.97%
CN(Cc1nnc2n1CCC2)C(=O)NCCc1ccc2c(c1)OCO2,-9.99%,2.12%,12.42%
CS(=O)(=O)NCCC(=O)N1CCCC1c1noc(C2CC2)n1 (stereo not given),2.491%,-1.524%,5.865%
O=C1NC2(Nc3ncccc31)C(=O)Nc1c2ccc(Cl)c1F (stereo not given),-24.44%,26.81%,7.436%
NC1CCN(S(=O)(=O)c2ccc(C(=O)N3CCSCC3)cc2)C1 (stereo not given),-24.45%,24.03%,17.16%
COc1ccc(NC(=O)CN2CCS(=O)(=O)CC2)cn1,-1.977%,-,13.92%
CC(C)(CCS(C)(=O)=O)CNC(=O)NC1CCCCC1(C)C (stereo not given),-23.85%,-1.689%,3.753%

Repeated from the top, 3 entries:

- Cc1nc(CNC(=O)NCC(O)c2ccc(F)c(F)c2)cs1 (stereo not given) | Mtb heat-shock: 10.02%; Mtb growth Cornell: 15.96%; LdMetRS: 9.206%
- Cc1noc(CS(=O)(=O)c2cc(F)ccc2F)n1 | Mtb heat-shock: 16.45%; Mtb growth Cornell: 4.856%; LdMetRS: 12.46%
- Cc1c(C2CCCN(C(=O)C3CC3)C2)n2c(nc1=O)CCC2 (stereo not given) | LdMetRS: 14.04%

Source: ChEMBL document CHEMBL3988442, “University of Dundee, Small-Polar-MMV Screening Library” (2021).